Data as given in PubChem BioAssay AID504804 (Drosophila RNAi Screening Center, 2011)
The deposit covers about 19,000 reagents; below is an unselected part of those with a known target gene and a result. In the full data, 47 (0.25%) are marked active. 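Signals are raw, not normalised; exact z-scores behind calls not deposited; actives needed confirmation, so some wells reaching 2 SD are inactive.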 Names joined by + are all predicted targets of the reagent. No sequences are given here.

Purpose: 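Knock-downs shielding fly cells from apoptosis caused by DNA damage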 (primary screen)
Cells: Drosophila Kc cells
Knock-down reagent: long dsRNA against Drosophila genes, 0.5 µg dsRNA per well
Time to read-out: 96 h (48 h knock-down, then 48 h drug)
Treatment: doxorubicin 5 µg/ml for 48 h, added 48 h after dsRNA
Detection: 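Viability measured as cellular ATP by luminescence after 48 h knock-down then 48 h doxorubicin at 5 µg/ml; unnormalised plate counts for each replicate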
Direction: raw ATP luminescence: higher = more viable cells, protection from doxorubicin
Active means: 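z-score of 2 or more over plate mean in both duplicates, retained only when retests and separate dsRNAs confirm the protection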

gene	amplicon	SD above plate mean	raw ATP luminescence, replicate 1	raw ATP luminescence, replicate 2	activity call
ERp60 (Endoplasmic reticulum p60)	DRSC07309		65217	46890	inactive
Asap (ArfGAP with SH3 domain, ankyrin repeat and PH domain)	DRSC06493		63103	80197	inactive
Asap (ArfGAP with SH3 domain, ankyrin repeat and PH domain)	DRSC06830		73497	61550	inactive
CG7016	DRSC16174		62310	62050	inactive
Grd (Glycine receptor)	DRSC11178		75130	57350	inactive
Jarid2 (Jumonji, AT rich interactive domain 2)	DRSC10372		38883	30327	inactive
CG13850	DRSC14700		40910	39330	inactive
ed (echinoid)	DRSC00350		76500	72920	inactive
ed (echinoid)	DRSC00438		22107	28733	inactive
ed (echinoid)	DRSC00439		26967	30120	inactive
ed (echinoid)	DRSC00478		22700	23863	inactive
CG3734	DRSC15509		69260	92510	inactive
CG2608	DRSC02709		79030	55263	inactive
CG15800	DRSC04271		43297	51077	inactive
tzn (tenzing norgay)	DRSC11755		31360	39493	inactive
CG13380 + CG4174	DRSC09988	at least 3 SD above plate mean	49700	47243	active
CG13380 + CG4174	DRSC10406		37073	37147	inactive
LanA (Laminin A)	DRSC11207		36203	36370	inactive
msps (mini spindles)	DRSC17004		36517	47087	inactive
Prm (Paramyosin)	DRSC08941		1.73e5	1.75e5	inactive
Prm (Paramyosin)	DRSC08942		1.79e5	1.61e5	inactive
Prm (Paramyosin)	DRSC11255		33003	39907	inactive
CG17380	DRSC15230		64490	67050	inactive
Pif1A + Pif1B	DRSC14142		55127	53993	inactive
Pif1A + Pif1B	DRSC14380		48860	24663	inactive
Pif1A + Pif1B	DRSC14381		43553	66063	inactive
htl (heartless)	DRSC16968		34703	33523	inactive
CG34409	DRSC14577		60940	50560	inactive
aqz (aaquetzalli)	DRSC16570		44423	47743	inactive
Cpr66D (Cuticular protein 66D)	DRSC10640		62227	74380	inactive
Cpr66D (Cuticular protein 66D)	DRSC10646		71243	67940	inactive
mei-38 (meiotic 38)	DRSC18564		42260	50370	inactive
Arc42 (Activator-recruited cofactor subunit 42)	DRSC14340		54990	59650	inactive
Arc42 (Activator-recruited cofactor subunit 42)	DRSC15627		84360	99830	inactive
Nop56	DRSC14699		44787	38423	inactive
Frq1 (Frequenin 1)	DRSC19961		3.53e5	3.45e5	inactive
bgm (bubblegum)	DRSC03495		41823	42280	inactive
Vtld + CG42529	DRSC10102		74440	61413	inactive
Vav (Vav guanine nucleotide exchange factor)	DRSC20384		3.34e5	3.23e5	inactive
wde (windei)	DRSC05955		52887	47690	inactive
Saf6 (SAGA factor-like TAF6)	DRSC00633		93503	64247	inactive
CG14803	DRSC18556		56690	47640	inactive

Copied from above for reference:
gene	amplicon	SD above plate mean	raw ATP luminescence, replicate 1	raw ATP luminescence, replicate 2	activity call
aqz (aaquetzalli)	DRSC16570		44423	47743	inactive
Cpr66D (Cuticular protein 66D)	DRSC10640		62227	74380	inactive
Cpr66D (Cuticular protein 66D)	DRSC10646		71243	67940	inactive
mei-38 (meiotic 38)	DRSC18564		42260	50370	inactive

Next results follow:
gene	amplicon	SD above plate mean	raw ATP luminescence, replicate 1	raw ATP luminescence, replicate 2	activity call
Cpsf73 (Cleavage and polyadenylation specificity factor 73)	DRSC16291		72240	89960	inactive
CG10602	DRSC02075		1.02e5	87050	inactive
CG4592	DRSC02761		1.13e5	66703	inactive
CG6665	DRSC07006		63097	64933	inactive
CG42552 (retired record)	DRSC11512		74347	47453	inactive
CG43345	DRSC03164		98703	65657	inactive
CG31897	DRSC01020		3.30e5	3.13e5	inactive
sas (stranded at second)	DRSC12631		68377	65747	inactive
CG4036	DRSC02735		75497	65323	inactive
CG34282	DRSC16298		56880	60300	inactive
CG33722 + CG18749	DRSC12674		67187	73863	inactive
CG33722 + CG18749	DRSC15386		52767	59187	inactive
Gr59c (Gustatory receptor 59c)	DRSC04185		38117	59063	inactive
Cftr (CF transmembrane conductance regulator)	DRSC15872		42670	40943	inactive
Taf13 (TBP-associated factor 13)	DRSC02106		53143	67353	inactive
Prx6a (Peroxiredoxin 6a)	DRSC00565		1.41e5	85117	inactive
to (takeout)	DRSC17086		70450	64050	inactive
ro (rough)	DRSC17046		46770	49940	inactive
CG42535	DRSC09041		1.91e5	1.75e5	inactive
Lsm10	DRSC06250		36790	73860	inactive
CG9839	DRSC16574		56407	24007	inactive
Rab1	DRSC16808		33440	29470	inactive
GM130 (Golgi matrix protein 130 kD)	DRSC04617		70723	68830	inactive
Sgsh (N-sulfoglucosamine sulfohydrolase)	DRSC14771		35110	31940	inactive
Adk1 (Adenosine kinase 1)	DRSC15514		44767	49940	inactive
CG9451	DRSC11074		71453	70340	inactive
Socs16D (Suppressor of Cytokine Signaling at 16D)	DRSC20087		3.02e5	1.87e5	inactive
zld (zelda)	DRSC19486		2.72e5	2.20e5	inactive
kay (kayak)	DRSC13962		2.11e5	2.19e5	inactive
kay (kayak)	DRSC15048		17290	15370	inactive
CG11583	DRSC08202		32130	32613	inactive
CG7781	DRSC03068		36810	72947	inactive
CG14073	DRSC10078		51057	35140	inactive
SsRbeta (Signal sequence receptor beta)	DRSC11290		21877	24270	inactive
CG9899	DRSC04597		47580	60190	inactive
Plekhm1 (Pleckstrin homology and RUN domain containing M1)	DRSC04527		62433	49103	inactive
Ugt37E1 (UDP-glycosyltransferase family 37 member E1)	DRSC02248		64743	68317	inactive
CG12498	DRSC18635		45620	46990	inactive
Nab2 (Nuclear polyadenosine RNA-binding 2)	DRSC14158		40117	36383	inactive
CG2889	DRSC18236		3.06e5	3.05e5	inactive
CG18268 + CG3014	DRSC15319		71247	70860	inactive
CG33307	DRSC01349		2.33e5	1.71e5	inactive
